Patent US20240084003A1
No constants are given. Whether binding was seen depends on the method and setting. Some binding calls cover weakened binding; strength is not graded here. For some assays here: Where a sequence is shown, tags or fusion partners need not be part of it.

The chains behind the UniProt entries cited, without tags or fusion partners. Where a name states a change or a piece, a line headed by the entry shows the natural chain unless it says otherwise.
UniProt P20273: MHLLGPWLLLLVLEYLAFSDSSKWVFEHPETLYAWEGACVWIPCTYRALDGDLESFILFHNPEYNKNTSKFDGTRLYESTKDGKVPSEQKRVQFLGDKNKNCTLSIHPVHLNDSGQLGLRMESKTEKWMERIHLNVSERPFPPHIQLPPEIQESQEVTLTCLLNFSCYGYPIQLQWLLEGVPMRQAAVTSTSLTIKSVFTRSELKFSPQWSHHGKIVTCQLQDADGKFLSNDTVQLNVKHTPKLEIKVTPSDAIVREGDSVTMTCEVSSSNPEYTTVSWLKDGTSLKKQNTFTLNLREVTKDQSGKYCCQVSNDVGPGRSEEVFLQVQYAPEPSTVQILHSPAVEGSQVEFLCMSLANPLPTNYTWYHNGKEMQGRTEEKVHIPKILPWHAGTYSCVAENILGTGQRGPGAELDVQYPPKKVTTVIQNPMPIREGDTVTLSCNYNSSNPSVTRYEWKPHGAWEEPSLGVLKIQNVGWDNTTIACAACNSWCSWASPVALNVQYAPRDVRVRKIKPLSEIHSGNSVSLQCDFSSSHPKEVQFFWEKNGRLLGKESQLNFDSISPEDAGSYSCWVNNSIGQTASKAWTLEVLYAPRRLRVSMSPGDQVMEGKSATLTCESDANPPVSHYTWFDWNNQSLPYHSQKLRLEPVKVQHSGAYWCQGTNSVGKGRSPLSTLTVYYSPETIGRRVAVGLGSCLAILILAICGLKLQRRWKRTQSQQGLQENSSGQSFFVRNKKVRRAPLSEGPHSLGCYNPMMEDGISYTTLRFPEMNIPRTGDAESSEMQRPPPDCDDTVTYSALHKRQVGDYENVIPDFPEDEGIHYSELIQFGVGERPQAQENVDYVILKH

Legend:
[1] = target: T1, monkey CD22 (full length, on HEK293T cells) (monkey); test: FACS, HEK293T-monkey CD22 cells (293T as parent cells)
T1 sequence: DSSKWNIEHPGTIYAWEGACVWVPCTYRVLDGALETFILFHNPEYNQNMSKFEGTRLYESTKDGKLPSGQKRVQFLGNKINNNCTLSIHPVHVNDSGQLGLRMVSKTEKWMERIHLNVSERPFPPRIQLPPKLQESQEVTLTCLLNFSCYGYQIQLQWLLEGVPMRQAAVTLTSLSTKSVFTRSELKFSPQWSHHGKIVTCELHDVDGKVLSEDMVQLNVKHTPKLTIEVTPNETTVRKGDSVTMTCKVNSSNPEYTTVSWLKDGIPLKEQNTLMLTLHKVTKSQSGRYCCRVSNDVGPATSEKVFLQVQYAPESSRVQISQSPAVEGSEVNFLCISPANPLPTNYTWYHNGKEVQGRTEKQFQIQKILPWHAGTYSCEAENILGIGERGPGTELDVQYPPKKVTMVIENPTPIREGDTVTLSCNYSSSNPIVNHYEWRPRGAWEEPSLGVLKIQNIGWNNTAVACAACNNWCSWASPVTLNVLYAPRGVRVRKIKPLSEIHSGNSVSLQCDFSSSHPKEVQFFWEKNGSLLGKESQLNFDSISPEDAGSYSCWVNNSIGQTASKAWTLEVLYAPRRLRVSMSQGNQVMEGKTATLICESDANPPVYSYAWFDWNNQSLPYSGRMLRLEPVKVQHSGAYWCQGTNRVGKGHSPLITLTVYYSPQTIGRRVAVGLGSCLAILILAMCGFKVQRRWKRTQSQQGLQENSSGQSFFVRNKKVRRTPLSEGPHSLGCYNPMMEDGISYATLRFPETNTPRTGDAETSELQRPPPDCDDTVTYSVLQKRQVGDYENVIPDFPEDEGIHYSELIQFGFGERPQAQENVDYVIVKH

[2] = target: T2, rhesus monkey CD22-ECD-His protein (rhesus monkey) (UniProt H9G1X2); test: SPR (Biacore), antibody captured on Protein A chip, rhesus CD22 in solution
T2 sequence: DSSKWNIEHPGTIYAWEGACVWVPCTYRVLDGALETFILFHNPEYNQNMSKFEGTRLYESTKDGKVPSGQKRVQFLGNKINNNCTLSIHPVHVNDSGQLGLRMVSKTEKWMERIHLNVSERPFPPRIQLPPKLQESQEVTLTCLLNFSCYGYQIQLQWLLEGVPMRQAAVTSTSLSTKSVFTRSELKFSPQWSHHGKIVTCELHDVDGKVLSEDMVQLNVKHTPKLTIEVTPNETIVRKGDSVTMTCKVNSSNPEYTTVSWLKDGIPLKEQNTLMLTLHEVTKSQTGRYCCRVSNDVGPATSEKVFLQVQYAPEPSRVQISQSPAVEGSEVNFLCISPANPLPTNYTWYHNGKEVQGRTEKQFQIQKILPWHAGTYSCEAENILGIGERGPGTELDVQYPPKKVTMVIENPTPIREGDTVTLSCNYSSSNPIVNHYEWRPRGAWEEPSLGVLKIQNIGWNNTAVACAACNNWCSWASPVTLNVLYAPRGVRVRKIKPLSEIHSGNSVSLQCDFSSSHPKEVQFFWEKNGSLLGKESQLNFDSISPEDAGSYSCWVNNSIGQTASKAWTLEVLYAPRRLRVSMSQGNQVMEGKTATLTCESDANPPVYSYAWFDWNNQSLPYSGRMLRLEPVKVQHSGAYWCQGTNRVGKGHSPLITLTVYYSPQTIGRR

[3] = target: human CD22 domain1-4-His (human) (UniProt P20273); test: ELISA, human CD22 domain1-4-His coated
[4] = target: human CD22-ECD-His protein (human) (UniProt P20273); test: ELISA, coated hCD22-ECD-His
[5] = target: human CD22-ECD-His protein (human) (UniProt P20273); test: ELISA, human CD22-ECD-His coated
[6] = target: T1, monkey CD22 (full length, on HEK293T cells) (monkey); test: FACS on HEK293T-monkey CD22 cells
[7] = target: human CD22 domain1-4-His (human) (UniProt P20273); test: ELISA, plate coated with human CD22 domain1-4-His
[8] = target: T3, monkey CD22 protein (ACROBiosystems, SI2-R52Ha) (monkey (rhesus monkey in paragraph 148)) (UniProt H9G1X2); test: ELISA, coated monkey CD22
T3 sequence: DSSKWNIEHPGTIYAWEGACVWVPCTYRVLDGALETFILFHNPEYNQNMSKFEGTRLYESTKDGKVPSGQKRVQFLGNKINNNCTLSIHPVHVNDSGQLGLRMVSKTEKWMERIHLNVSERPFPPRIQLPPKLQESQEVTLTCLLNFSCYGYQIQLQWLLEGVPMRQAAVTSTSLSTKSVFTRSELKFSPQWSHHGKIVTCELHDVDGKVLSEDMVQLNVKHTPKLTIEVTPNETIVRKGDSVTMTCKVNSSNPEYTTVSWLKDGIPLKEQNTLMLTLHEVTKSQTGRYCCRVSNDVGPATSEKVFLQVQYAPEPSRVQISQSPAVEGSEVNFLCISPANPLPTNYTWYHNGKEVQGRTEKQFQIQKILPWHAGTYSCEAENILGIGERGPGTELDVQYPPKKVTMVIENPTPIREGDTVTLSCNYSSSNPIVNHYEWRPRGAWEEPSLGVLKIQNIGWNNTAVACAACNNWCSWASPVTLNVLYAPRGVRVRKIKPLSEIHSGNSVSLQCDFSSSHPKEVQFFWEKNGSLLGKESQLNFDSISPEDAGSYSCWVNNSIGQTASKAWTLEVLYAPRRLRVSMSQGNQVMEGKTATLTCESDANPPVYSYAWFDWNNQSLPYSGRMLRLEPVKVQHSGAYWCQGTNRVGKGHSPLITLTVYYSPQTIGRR

[9] = target: human CD22 (full length, on cells) (human) (UniProt P20273); test: FACS on Raji and CHO-K1-human CD22 2C4 cells
[10] = target: T3, monkey CD22 protein (ACROBiosystems, SI2-R52Ha) (monkey (rhesus monkey in paragraph 148)); test: ELISA, monkey CD22-ECD-His coated
[11] = target: human CD22 (full length, on cells) (human) (UniProt P20273); test: FACS, Raji cells (MoLT4 as CD22-negative cells)
[12] = target: human CD22 (full length, on cells) (human) (UniProt P20273); test: FACS, CHO-K1-human CD22 cells (CHO-K1 as parent cells)

Measured: binding

B1: F2.121.9 (antibody, human IgG1, lambda, V domains shown)
VH: EVQLVESGGGLVKPGGSLKLSCAASGFTFSDYVMSWIRQTPEKRLEWVATISDAGSYTFYPDNLKGRFTISRDNAKNNLYLQMNHLTSEDTAFYYCAIIYFGNYGGYWGQGTLVTVSV
VL: QAVVTQESALTTSPGGTVVLTCRSNTGAVTTSNYANWVQEKPDHLFTGLIGGTSNRAPGVPVRFSGSLIGDKAALTITGAQTEDDAMYFCALWYSTHWVFGGGTKLTVLG
binds: all assays above

B2: F2.205.9 (antibody, human IgG1, lambda, V domains shown)
VH: QVTLKESGPGILQPSQTLSLTCSFSGFSLSTSGMGVGWIRQPSGKGLEWLAHIWWDDDEYYNPALKSRLTISKDTSKNQVFLKIANVDTADTATYYCARISIPYGYYDWFFDVWGTGTTVTVSA
VL: QAVVTQESALTTSPGETVTLTCRSSTGAVTTRNYANWVQEKPDHLFTGLIGGTNNRAPGVPARFSGSLIGDKAALTITGAQTEDEAIYFCALWYSNHFIFGSGTKVTVLG
not listed: [2]
binds: all other assays above
